Source: the supplement of paper PMC10849652
This is one part of the list.

The chains behind the UniProt entries cited, without tags or fusion partners. Where a name states a change or a piece, a line headed by the entry shows the natural chain unless it says otherwise.
UniProt Q86X95: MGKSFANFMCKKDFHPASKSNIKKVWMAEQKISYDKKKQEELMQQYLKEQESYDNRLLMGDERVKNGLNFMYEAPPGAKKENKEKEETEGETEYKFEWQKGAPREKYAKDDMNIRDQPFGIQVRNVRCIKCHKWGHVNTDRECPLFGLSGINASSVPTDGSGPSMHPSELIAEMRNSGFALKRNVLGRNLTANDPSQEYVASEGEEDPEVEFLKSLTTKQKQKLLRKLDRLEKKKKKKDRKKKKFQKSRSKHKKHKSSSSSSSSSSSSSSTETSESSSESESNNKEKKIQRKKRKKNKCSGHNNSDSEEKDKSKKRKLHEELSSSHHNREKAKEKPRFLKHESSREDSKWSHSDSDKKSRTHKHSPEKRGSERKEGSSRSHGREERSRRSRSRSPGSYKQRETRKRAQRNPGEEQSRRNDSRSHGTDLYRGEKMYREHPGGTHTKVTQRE
UniProt Q8N3C7: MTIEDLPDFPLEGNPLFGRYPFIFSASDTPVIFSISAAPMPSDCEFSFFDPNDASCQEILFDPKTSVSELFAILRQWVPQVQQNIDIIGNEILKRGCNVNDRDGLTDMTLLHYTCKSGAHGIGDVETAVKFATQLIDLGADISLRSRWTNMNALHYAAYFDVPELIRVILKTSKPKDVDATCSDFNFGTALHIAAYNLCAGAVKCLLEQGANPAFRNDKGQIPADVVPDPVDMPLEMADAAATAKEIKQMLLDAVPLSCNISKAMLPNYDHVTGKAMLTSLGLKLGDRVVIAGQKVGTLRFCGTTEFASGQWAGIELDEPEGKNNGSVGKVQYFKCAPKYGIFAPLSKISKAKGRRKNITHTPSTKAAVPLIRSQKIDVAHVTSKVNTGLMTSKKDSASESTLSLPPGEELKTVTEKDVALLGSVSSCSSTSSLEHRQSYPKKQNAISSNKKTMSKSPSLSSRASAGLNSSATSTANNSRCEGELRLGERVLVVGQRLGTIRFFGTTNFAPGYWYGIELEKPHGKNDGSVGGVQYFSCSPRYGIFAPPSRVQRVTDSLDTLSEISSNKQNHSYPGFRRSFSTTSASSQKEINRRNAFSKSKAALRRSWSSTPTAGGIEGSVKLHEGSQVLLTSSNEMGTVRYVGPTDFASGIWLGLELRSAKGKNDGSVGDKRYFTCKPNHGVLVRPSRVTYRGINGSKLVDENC
UniProt Q14008: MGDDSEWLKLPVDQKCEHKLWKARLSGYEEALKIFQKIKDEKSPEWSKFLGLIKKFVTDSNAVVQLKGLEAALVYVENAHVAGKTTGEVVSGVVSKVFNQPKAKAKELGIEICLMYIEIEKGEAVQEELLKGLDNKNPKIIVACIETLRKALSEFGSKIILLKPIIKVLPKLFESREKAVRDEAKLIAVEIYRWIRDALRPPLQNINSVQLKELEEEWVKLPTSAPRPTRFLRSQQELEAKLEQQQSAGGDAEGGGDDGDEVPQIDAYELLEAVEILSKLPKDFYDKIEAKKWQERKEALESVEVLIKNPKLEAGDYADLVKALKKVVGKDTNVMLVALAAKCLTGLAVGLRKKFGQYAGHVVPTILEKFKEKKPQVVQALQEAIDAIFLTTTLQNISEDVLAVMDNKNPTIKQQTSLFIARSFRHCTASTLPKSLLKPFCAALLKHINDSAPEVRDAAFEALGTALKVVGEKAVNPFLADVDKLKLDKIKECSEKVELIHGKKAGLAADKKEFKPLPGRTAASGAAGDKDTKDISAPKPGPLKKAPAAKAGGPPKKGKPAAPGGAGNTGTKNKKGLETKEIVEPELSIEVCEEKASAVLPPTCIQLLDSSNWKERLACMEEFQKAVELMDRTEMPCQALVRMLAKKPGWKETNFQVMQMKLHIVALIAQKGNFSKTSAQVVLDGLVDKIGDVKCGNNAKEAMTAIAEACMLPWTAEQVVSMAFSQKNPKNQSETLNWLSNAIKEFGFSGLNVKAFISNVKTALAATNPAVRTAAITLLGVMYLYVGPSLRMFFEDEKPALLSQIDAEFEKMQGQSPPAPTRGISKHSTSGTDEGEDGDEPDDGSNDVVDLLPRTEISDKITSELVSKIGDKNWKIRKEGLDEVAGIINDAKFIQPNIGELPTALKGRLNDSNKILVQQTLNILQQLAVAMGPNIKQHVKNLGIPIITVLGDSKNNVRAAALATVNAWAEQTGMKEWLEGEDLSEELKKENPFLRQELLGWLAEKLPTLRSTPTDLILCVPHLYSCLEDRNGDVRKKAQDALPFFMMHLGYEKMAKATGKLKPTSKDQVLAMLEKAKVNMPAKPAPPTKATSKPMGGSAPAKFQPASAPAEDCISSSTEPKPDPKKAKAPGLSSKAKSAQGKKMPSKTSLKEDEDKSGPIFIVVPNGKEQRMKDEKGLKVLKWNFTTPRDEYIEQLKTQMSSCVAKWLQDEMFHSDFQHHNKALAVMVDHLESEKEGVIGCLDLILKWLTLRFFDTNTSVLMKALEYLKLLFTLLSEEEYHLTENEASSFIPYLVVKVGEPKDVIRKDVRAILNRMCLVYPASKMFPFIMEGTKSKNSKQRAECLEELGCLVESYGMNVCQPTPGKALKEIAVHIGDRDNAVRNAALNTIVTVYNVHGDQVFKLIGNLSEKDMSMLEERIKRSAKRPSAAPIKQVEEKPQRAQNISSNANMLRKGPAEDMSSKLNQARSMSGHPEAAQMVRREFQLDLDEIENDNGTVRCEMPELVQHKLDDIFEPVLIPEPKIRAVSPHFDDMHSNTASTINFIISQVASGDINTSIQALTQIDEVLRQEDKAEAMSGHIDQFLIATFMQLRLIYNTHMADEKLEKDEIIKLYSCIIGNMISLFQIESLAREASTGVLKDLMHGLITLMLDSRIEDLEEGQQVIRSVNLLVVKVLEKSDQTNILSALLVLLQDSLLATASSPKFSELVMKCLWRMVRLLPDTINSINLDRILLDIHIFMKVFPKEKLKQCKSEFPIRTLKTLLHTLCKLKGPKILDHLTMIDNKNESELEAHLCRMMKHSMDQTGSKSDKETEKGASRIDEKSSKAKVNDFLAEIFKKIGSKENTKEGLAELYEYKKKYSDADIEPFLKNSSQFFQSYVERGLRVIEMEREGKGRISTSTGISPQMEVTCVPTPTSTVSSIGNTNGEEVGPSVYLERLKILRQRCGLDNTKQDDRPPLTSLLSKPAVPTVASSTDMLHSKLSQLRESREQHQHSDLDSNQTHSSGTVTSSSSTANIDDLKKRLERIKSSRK
UniProt Q5JTJ3: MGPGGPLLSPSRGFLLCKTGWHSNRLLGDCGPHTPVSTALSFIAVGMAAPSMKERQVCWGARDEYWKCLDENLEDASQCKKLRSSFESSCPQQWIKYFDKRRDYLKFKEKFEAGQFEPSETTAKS
UniProt P62633: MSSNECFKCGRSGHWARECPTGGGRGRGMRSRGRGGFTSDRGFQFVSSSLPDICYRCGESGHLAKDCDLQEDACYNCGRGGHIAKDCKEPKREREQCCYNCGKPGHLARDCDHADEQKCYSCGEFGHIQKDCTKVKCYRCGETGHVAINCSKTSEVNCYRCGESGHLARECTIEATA
UniProt O95628: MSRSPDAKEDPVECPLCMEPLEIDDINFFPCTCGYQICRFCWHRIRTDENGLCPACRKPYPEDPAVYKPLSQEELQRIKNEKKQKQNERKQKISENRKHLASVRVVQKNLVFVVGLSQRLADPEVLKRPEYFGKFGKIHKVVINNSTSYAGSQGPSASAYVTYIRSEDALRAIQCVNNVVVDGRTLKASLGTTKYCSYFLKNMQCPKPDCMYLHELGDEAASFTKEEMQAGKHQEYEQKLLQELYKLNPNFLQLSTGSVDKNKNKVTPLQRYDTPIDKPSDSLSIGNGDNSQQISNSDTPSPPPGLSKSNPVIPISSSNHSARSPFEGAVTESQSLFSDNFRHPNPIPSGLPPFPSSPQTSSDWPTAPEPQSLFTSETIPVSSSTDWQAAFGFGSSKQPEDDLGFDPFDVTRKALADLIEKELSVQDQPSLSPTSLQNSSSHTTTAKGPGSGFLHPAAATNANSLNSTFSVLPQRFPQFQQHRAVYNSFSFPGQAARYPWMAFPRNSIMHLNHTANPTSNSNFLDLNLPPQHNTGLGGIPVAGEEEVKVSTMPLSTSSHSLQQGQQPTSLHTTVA
UniProt Q9NY35: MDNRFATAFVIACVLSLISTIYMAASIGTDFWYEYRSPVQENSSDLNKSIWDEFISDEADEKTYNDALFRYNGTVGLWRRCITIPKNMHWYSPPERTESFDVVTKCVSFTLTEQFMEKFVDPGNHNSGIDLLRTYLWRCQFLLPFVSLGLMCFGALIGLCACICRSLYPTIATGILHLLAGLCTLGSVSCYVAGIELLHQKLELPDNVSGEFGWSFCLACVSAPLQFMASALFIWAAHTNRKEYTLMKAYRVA
UniProt Q8IZ52: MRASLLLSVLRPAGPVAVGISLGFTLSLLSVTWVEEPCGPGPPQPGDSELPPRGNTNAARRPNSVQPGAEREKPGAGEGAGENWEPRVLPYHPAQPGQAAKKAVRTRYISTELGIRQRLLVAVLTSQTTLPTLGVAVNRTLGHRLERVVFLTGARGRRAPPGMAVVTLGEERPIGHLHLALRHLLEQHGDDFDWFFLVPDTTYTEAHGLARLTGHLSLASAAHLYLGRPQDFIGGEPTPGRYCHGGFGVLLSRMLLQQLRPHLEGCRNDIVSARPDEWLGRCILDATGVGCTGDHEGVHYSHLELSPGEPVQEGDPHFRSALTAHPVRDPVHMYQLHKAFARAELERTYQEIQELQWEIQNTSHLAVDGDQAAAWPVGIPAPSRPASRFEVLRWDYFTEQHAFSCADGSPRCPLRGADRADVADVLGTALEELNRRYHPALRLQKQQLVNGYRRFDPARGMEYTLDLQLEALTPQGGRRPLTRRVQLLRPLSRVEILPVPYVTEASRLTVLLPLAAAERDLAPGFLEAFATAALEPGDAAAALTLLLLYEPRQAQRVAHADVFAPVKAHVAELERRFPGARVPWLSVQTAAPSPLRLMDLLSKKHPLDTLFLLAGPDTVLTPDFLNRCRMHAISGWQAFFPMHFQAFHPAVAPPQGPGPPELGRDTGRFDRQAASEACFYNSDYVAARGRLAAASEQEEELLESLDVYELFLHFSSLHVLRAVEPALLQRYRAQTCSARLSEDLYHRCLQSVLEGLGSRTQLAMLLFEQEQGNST
UniProt Q96S66: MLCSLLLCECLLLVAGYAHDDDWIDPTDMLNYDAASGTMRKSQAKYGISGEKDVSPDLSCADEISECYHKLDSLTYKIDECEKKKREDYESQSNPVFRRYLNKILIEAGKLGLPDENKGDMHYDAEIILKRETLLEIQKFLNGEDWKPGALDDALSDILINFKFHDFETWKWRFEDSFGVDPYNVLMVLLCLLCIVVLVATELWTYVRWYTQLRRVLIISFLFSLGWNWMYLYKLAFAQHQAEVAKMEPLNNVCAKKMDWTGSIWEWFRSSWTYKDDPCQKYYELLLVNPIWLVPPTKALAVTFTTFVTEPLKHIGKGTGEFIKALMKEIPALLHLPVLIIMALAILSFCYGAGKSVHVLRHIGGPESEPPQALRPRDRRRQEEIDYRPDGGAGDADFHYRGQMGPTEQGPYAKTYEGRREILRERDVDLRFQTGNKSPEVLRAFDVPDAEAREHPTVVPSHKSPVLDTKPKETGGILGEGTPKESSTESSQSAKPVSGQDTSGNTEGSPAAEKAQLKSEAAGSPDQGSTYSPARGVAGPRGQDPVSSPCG
UniProt Q9BT09: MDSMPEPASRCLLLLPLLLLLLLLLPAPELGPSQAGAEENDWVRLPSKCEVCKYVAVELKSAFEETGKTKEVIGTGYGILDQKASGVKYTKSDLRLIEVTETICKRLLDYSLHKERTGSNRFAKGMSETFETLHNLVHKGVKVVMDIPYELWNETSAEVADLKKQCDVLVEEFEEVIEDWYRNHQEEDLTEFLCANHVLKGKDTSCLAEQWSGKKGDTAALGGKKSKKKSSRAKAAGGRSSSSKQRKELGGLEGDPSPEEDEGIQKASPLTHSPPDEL
UniProt Q99439: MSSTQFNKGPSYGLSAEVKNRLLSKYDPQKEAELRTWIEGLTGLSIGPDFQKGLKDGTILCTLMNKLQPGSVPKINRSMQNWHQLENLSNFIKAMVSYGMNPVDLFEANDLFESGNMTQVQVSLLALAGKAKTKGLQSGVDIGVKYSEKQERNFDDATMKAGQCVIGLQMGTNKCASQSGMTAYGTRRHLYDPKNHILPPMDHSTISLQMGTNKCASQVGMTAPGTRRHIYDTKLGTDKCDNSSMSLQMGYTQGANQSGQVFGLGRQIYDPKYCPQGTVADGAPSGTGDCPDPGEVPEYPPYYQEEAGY
UniProt Q92600, whole entry, looked up: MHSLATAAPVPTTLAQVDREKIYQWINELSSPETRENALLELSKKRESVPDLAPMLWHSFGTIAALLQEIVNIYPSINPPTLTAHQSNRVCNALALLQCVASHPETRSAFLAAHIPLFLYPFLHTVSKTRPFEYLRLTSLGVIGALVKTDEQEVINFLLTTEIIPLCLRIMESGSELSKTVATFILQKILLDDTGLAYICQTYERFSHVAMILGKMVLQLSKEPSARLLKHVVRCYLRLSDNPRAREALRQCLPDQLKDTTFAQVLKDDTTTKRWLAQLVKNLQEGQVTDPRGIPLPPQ

Key:
Test in all cases: log2 fold change, soluble protein after heating vs DMSO (PISA); higher = thermal stabilisation; K562 cells, 10 uM, 30 min; active = over 0.2 and 3.5 SD of the protein, either way, in both replicates (recomputed)
[1] = compound: C1=CC=C(C=C1)[C@H](COC2=CC3=C(C=C2)NC(=O)N3)NC(=O)C4=CC=CN(C4=O)CC5=CC(=C(C=C5)F)F
Summary of the method: (§1)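 K562 cells at 2×10^6 cells/mL were exposed to 10 μM compound for 30 min, then aliquots were heated for 3 min across 48°C-58°C, pooled, and extracted in PBS containing 0.5% NP-40 at 4°C. The supernatant after 21,000xg for 90 min was taken as soluble protein and measured by TMTpro 16plex LC-MS/MS with channel sums equalised. Thermal stability is reported relative to control samples, with values from duplicates. Fold changes are given on a log2 scale.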

[2] = compound: CC1=C(SC2=C1C(=N[C@H](C3=NN=C(N32)C)CC(=O)N)C4=CC=C(C=C4)Cl)C
Summary of the method: as §1

[3] = compound: CC1=C2C(=CC=C1)N=C(N(C2=O)C3=CC=CC=C3C)CN4C=NC5=C(N=CN=C54)N
Summary of the method: as §1

[4] = compound: Cc1sc2c(c1C)C(c1ccc(Cl)cc1)=N[C@@H](CC(=O)OC(C)(C)C)c1nnc(C)n1-2
Summary of the method: as §1

[5] = compound: c1ccc([C@@H]2C[C@H]2NC2CCNCC2)cc1
Summary of the method: as §1

Measured: log2 fold change

CKM (UniProt P06732)
inactive: [1] -0.078 | [2] 0.051 | [3] 0.017 | [4] -0.015 | [5] -0.023

COA3 (UniProt Q9Y2R0)
inactive: [1] -0.032 | [2] 0.005 | [3] -0.032 | [4] -0.043 | [5] 0.01

CKS1B (UniProt P61024)
inactive: [1] -0.004 | [2] 0.056 | [3] 0.024 | [4] -0.067 | [5] -0.02

COL15A1 (UniProt P39059)
inactive: [1] -0.031 | [2] -0.008 | [3] -0.126 | [4] 0.059 | [5] 0.104

CLASP2 isoform 3 (UniProt O75122)
inactive: [1] -0.065 | [2] 0.053 | [3] 0.091 | [4] -0.024 | [5] -0.014

CLUH, A0A494C0R8
inactive: [1] -0.121 | [2] -0.004 | [3] 0.025 | [4] 0.152 | [5] 0.096

CIAO1 (UniProt O76071)
inactive: [1] -0.042 | [2] -0.008 | [3] 0.142 | [4] -0.039 | [5] -0.022

CIR1 (UniProt Q86X95)
inactive: [1] -0.075 | [2] -0.286 | [3] -0.241 | [4] 0.198 | [5] 0.217

CLTC (UniProt Q00610)
inactive: [1] -0.008 | [2] 0.016 | [3] -0.025 | [4] -0.009 | [5] -0.016

CHMP5 (UniProt Q9NZZ3)
inactive: [1] 0.002 | [2] -0.045 | [3] 0 | [4] -0.008 | [5] 0.038

CMIP (UniProt Q8IY22)
inactive: [1] -0.04

CLNS1A (UniProt P54105)
inactive: [1] 0.009 | [2] 0.062 | [3] -0.014 | [4] 0.018 | [5] -0.03

CNOT6L (UniProt Q96LI5)
inactive: [1] -0.04 | [2] -0.002 | [3] 0.13 | [4] -0.008 | [5] -0.051

CLIP4 (UniProt Q8N3C7)
inactive: [1] -0.012 | [2] -0.086 | [3] 0.054 | [4] 0.029 | [5] 0.035

CKAP5 (UniProt Q14008)
inactive: [1] -0.061 | [2] -0.012 | [3] 0.032 | [4] 0.035 | [5] -0.018

CHST11 (UniProt Q9NPF2)
inactive: [1] 0.018 | [2] -0.061 | [3] 0.055 | [4] 0.007 | [5] -0.139

CMBL (UniProt Q96DG6)
inactive: [1] 0.025 | [2] 0.062 | [3] 0.052 | [4] -0.023 | [5] 0.003

CLPX (UniProt O76031)
inactive: [1] 0.011 | [2] -0.02 | [3] 0.013 | [4] -0.035 | [5] 0.048

CNTN4 (UniProt Q8IWV2)
inactive: [1] 0.093 | [2] 0.154 | [3] 0.103 | [4] -0.075 | [5] -0.106

COA6 isoform 2 (UniProt Q5JTJ3)
inactive: [1] 0.06 | [2] 0.08 | [3] 0.038 | [4] -0.06 | [5] -0.015

CMSS1 (UniProt Q9BQ75)
inactive: [1] 0.04 | [2] 0.106 | [3] 0.084 | [4] 0.186 | [5] -0.086

CLPB isoform 2 (UniProt Q9H078)
inactive: [1] -0.018 | [2] 0.04 | [3] -0.01 | [4] -0.025 | [5] -0.022

CNBP isoform 4 (UniProt P62633)
inactive: [1] 0.02

CNOT4 isoform 6 (UniProt O95628)
inactive: [1] -0.019 | [2] 0.012 | [3] 0.068 | [4] -0.01 | [5] 0.018

CKMT1A (UniProt P12532)
inactive: [1] 0.015 | [2] 0.017 | [3] -0.024 | [4] -0.002 | [5] -0.01

CNNM2 (UniProt Q9H8M5)
inactive: [1] -0.094 | [2] -0.21 | [3] -0.043 | [4] -0.191 | [5] 0.136

CNOT11 (UniProt Q9UKZ1)
inactive: [1] -0.01 | [2] 0.017 | [3] -0.022 | [4] 0.157 | [5] 0.014

Taken from the listing (10 entries):
CMBL (UniProt Q96DG6)
inactive: [1] 0.025 | [2] 0.062 | [3] 0.052 | [4] -0.023 | [5] 0.003

CLPX (UniProt O76031)
inactive: [1] 0.011 | [2] -0.02 | [3] 0.013 | [4] -0.035 | [5] 0.048

CNTN4 (UniProt Q8IWV2)
inactive: [1] 0.093 | [2] 0.154 | [3] 0.103 | [4] -0.075 | [5] -0.106

COA6 isoform 2 (UniProt Q5JTJ3)
inactive: [1] 0.06 | [2] 0.08 | [3] 0.038 | [4] -0.06 | [5] -0.015

CMSS1 (UniProt Q9BQ75)
inactive: [1] 0.04 | [2] 0.106 | [3] 0.084 | [4] 0.186 | [5] -0.086

CLPB isoform 2 (UniProt Q9H078)
inactive: [1] -0.018 | [2] 0.04 | [3] -0.01 | [4] -0.025 | [5] -0.022

CNBP isoform 4 (UniProt P62633)
inactive: [1] 0.02

CNOT4 isoform 6 (UniProt O95628)
inactive: [1] -0.019 | [2] 0.012 | [3] 0.068 | [4] -0.01 | [5] 0.018

CKMT1A (UniProt P12532)
inactive: [1] 0.015 | [2] 0.017 | [3] -0.024 | [4] -0.002 | [5] -0.01

CNNM2 (UniProt Q9H8M5)
inactive: [1] -0.094 | [2] -0.21 | [3] -0.043 | [4] -0.191 | [5] 0.136

Remaining list, next part

CLIC4 (UniProt Q9Y696)
inactive: [1] -0.018 | [2] 0.041 | [3] 0.122 | [4] -0.002 | [5] 0.028

CIRBP isoform 2 (UniProt Q14011)
inactive: [1] 0.038 | [2] -0.14 | [3] -0.066 | [4] 0.115 | [5] 0.006

COL18A1 (UniProt P39060)
inactive: [1] -0.051 | [2] 0.106 | [3] -0.123 | [4] -0.045 | [5] -0.219

CLPP (UniProt Q16740)
inactive: [1] 0.037 | [2] 0.153 | [3] 0.093 | [4] -0.124 | [5] 0.008

CLDND1 (UniProt Q9NY35)
inactive: [1] 0.03 | [2] -0.201 | [3] -0.071 | [4] 0.008 | [5] 0

COASY isoform 2 (UniProt Q13057)
inactive: [1] -0.03 | [2] 0.054 | [3] 0.053 | [4] -0.037 | [5] -0.021

CLASP1 (UniProt Q7Z460)
inactive: [1] -0.039 | [2] -0.002 | [3] 0.079 | [4] 0 | [5] -0.044

CLDN12 (UniProt P56749)
inactive: [1] -0.196

CNBP isoform 6 (UniProt P62633)
inactive: [1] -0.003 | [2] -0.151 | [3] -0.052 | [4] 0.061 | [5] 0.106

CHPF (UniProt Q8IZ52)
inactive: [1] 0.15 | [2] 0.063 | [3] -0.174 | [4] -0.281 | [5] 0.138

CNST (UniProt Q6PJW8)
inactive: [1] -0.026 | [2] 0.011 | [3] 0.094 | [4] 0.021 | [5] -0.02

CLCC1 (UniProt Q96S66)
inactive: [1] 0.014 | [2] 0.07 | [3] 0.026 | [4] -0.012 | [5] -0.002

CISD1 (UniProt Q9NZ45)
inactive: [1] 0.061 | [2] 0.017 | [3] 0.004 | [4] 0.006 | [5] 0.026

CMC2 (UniProt Q9NRP2)
inactive: [1] -0.001 | [2] -0.035 | [3] -0.046 | [4] -0.035 | [5] 0.083

CNPY3 (UniProt Q9BT09)
inactive: [1] 0.025 | [2] 0.114 | [3] 0.007 | [4] -0.005 | [5] -0.01

CLINT1 (UniProt Q14677)
inactive: [1] 0.063 | [2] 0.131 | [3] -0.005 | [4] -0.009 | [5] 0.157

CIAO3 (UniProt Q9H6Q4)
inactive: [1] 0.007 | [2] 0.079 | [3] 0.033 | [4] -0.034 | [5] -0.051

CNIH4 (UniProt Q9P003)
inactive: [1] 0.017 | [2] 0.001 | [3] -0.113 | [4] -0.139 | [5] 0.009

CLGN (UniProt O14967)
inactive: [1] -0.062 | [2] 0.043 | [3] -0.005 | [4] 0.098 | [5] 0.032

CLPTM1 (UniProt O96005)
inactive: [1] 0.021 | [2] 0.022 | [3] 0.059 | [4] 0.021 | [5] -0.041

CNN2 (UniProt Q99439)
inactive: [1] -0.061 | [2] 0.011 | [3] 0.039 | [4] 0.007 | [5] 0.01

CNOT9 isoform 2 (UniProt Q92600)
inactive: [1] -0.063 | [2] 0.041 | [3] 0.034 | [4] -0.03 | [5] -0.005

CNOT1 (UniProt A5YKK6)
inactive: [1] -0.02 | [2] 0.021 | [3] 0.031 | [4] -0.017 | [5] -0.021

CNDP2 (UniProt Q96KP4)
inactive: [1] -0.006 | [2] 0.039 | [3] 0.023 | [4] 0.009 | [5] -0.041

COA7 (UniProt Q96BR5)
inactive: [1] -0.007 | [2] -0.021 | [3] -0.022 | [4] -0.038 | [5] 0.049

CIB1 isoform 2 (UniProt Q99828)
inactive: [1] 0.01 | [2] 0.072 | [3] -0.026 | [4] 0.013 | [5] -0.016

CLPTM1L (UniProt Q96KA5)
inactive: [1] -0.011 | [2] 0.013 | [3] 0.024 | [4] -0.145 | [5] 0.01

CNOT8 (UniProt Q9UFF9)
inactive: [1] -0.018 | [2] -0.097 | [3] 0.026 | [4] 0.044 | [5] -0.058
